Data as given in patent US20100311756A1, “METHODS FOR DELAYING THE PROGRESSION OF AT LEAST ONE OF CARDIAC HYPERTROPHY, CARDIAC REMODELING OR LEFT VENTRICULAR FUNCTION OR THE ONSET OF HEART FAILURE IN SUBJECTS IN NEED OF TREATMENT THEREOF” (TAKEDA PHARMACEUTICALS NORTH AMERICA, INC., priority 2009, published 2010).

Experiments:
Assay type in all cases: in vivo
[1] = test system: mice subjected to TAC or sham surgery; assay: TAC or sham surgery in mice, Protocol 2: febuxostat or allopurinol for three weeks beginning seven days after TAC; details: for Body weight / Heart rate: drinking water (FBS 0.05 mg/ml, allopurinol 0.15 mg/ml) three weeks from day 7; for Average body weight increase: during the three-week treatment period
Excerpt: • Mice. Male C57/BL6 mice at 8-9 weeks of age were purchased from Jackson Laboratories (Bar Harbor, Me.) for use in this study. Mice were housed in an air-conditioned room with a 12-hour:12-hour light-dark cycle, received standard mouse chow, and drank tap water. This study was approved by the Institutional Animal Care and Use Committee of the University of Minnesota. • Experimental Protocol 1. This protocol was designed to determine whether febuxostat (2-[3-cyano-4-(2-methylpropoxy)phenyl]-4-methylthiazole-5-carboxylic acid) treatment, beginning immediately after the onset of acute pressure overload, could protect against transverse aortic constriction (TAC)-induced left ventricular (LV) hypertrophy, dysfunction and mortality. Three treatment groups were included (See Table 1, below): sham-operated mice (n=20), TAC mice treated with vehicle (0.5% methylcellulose) (n=30), and TAC mice treated with febuxostat (suspension in 0.5% methylcellulose) (n=30). To generate LV hypertrophy in a short time period with a significant incidence of cardiac mortality, TAC was created by ligating the transverse aorta against a 27 G needle to create severe LV pressure overload. Since mice tend to take in less water and food during the first 1-3 days after the TAC procedure, febuxostat (5 mg/kg/day in 250 μl vehicle) or vehicle (250 μl) was administered daily by oral gavage for a total of 8 days, with the first dose administered on the day of the surgery after the animal awoke from anesthesia (˜60 min after the TAC procedure). On the eighth day, LV function was assessed by echocardiography approximately 1 hour after the last febuxostat or vehicle dose. Approximately 3 hours after echocardiographic evaluation (4 hours after the last febuxostat or vehicle dose), the mice were weighed and blood samples collected. The animals were euthanized and the heart and lungs excised; the right and left atria were trimmed away, and the ventricles and lungs were weighed. Tissue from the left ventricle was used for histological evaluation and Western blots. • Experimental Protocol 2. This protocol was designed to determine whether administration of febuxostat (FBS) or allopurinol (AL) beginning after the onset of cardiac hypertrophy, LV dysfunction and heart failure could exert a protective effect. For this protocol, mice subjected to TAC (using a 26 gauge (G) needle to generate moderate TAC) or sham surgery were divided into six experimental groups as described in Table 1, below. Beginning seven days after TAC, animals were treated with vehicle (0.01 mg/ml NaCl, equivalent salt content as in the FBS drinking water), FBS (0.05 mg/ml) or AL (0.15 mg/ml) in drinking water for three weeks. Following three weeks of treatment, ventricular function was assessed by echocardiography. Blood samples and cardiac tissue were collected during 2-3 hours after the echocardiographic evaluation as described previously in Protocol 1.
• Minimally Invasive TAC Procedure. TAC was performed using the minimally invasive suprasternal approach described by Hu et al. (See, Hu et al., Am. J. Physiol. Heart Circ. Physiol., 3:H1261-9 (2003)). Mice were anesthetized with a mixture of 80 mg/kg ketamine and 30 mg/kg xylazine intraperitoneally. A horizontal incision was made at the level of the suprasternal notch to allow direct visualization of the transverse aorta without entering the pleural space. With the aid of a dissecting microscope, aortic constriction was performed by ligating the aorta between the right innominate artery and the left carotid artery over a 27 G) needle using 5-0 silk suture. The needle was immediately removed after ligation, leaving the aortic constriction in place. The incision was closed and the animals were allowed to recover. Analgesia was provided before the mice awoke from anesthesia. Sham surgery utilized the same procedure but without aortic ligation. • Echocardiography.

[2] = test system: post-myocardial infarction rabbits; assay: Chronic xanthine oxidase inhibition following myocardial infarction (permanent coronary artery ligation) in rabbits; details: Day 49
Excerpt: • Animals Male New Zealand white rabbits (1-2 kg; Clerco Research Farms, Cincinnati, Ohio, USA) were housed in separate cages in an environmentally controlled facility. The animals were subjected to circadian light-dark cycles, maintained on standard rabbit chow (2030C, Harlan Teklad, Madison, Wis., USA) and provided water ad libitum.
The procedures used in this study were reviewed and approved by the Institutional Animal Care and Use Committee (IACUC) of QTest Labs for compliance with regulations and current accepted practices. All applicable sections of the Final Rules of the Animal Welfare Act regulations (Section 9 CFR) and the Public Health Service Policy on Humane Care and Use of Laboratory Animals (OPRR, NIH, 1986) were followed. At the end of the study, all animals were humanely euthanized in accordance with accepted guidelines of the American Veterinary Medical Association (See, American Veterinary Medicine Association (AVMA), 2000 Report of the AVMA Panel on Euthanasia, The Journal of the American Veterinary Medical Association, 218(5):669-696 (2001)). • Drugs Febuxostat and allopurinol (Sigma-Aldrich, St. Louis, Mo., USA) were each formulated as a suspension in 0.5% methylcellulose (Sigma-Aldrich, St. Louis, Mo.) as the vehicle. […] Allopurinol was given orally at 60 mg/kg. […] The rabbits were anesthetized with an intramuscular injection of ketamine (35 mg/kg)/xylazine (5 mg/kg) and pre-surgery enrofloxacin (12 mg/kg). Isoflurane (1-2%) was given during the surgery as required to maintain a deep level of anesthesia and the animals were allowed to breathe 100% oxygen. A limb lead electrocardiogram (ECG) was obtained to monitor sinus rhythm, heart rate, and J-point deviation. The rabbit was placed in dorsal recumbency, and the sternum was exposed by blunt dissection and then incised with scissors. […] Myocardial ischemia was confirmed by regional cyanosis of the myocardial surface and ST-segment elevation on the ECG. The sternum was closed, leaving the pericardial sac as it was. The muscle layers, subcutaneous layer and skin were then closed. […]

TAC mice = assay: Transverse aortic constriction (TAC) in mice, Protocol 1: febuxostat for 8 days beginning ~60 min after TAC; details: 5 mg/kg/day oral gavage for 8 days from ~60 min after TAC
Excerpt: • Mice. Male C57/BL6 mice at 8-9 weeks of age were purchased from Jackson Laboratories (Bar Harbor, Me.) for use in this study. Mice were housed in an air-conditioned room with a 12-hour:12-hour light-dark cycle, received standard mouse chow, and drank tap water. This study was approved by the Institutional Animal Care and Use Committee of the University of Minnesota. • Experimental Protocol 1. This protocol was designed to determine whether febuxostat (2-[3-cyano-4-(2-methylpropoxy)phenyl]-4-methylthiazole-5-carboxylic acid) treatment, beginning immediately after the onset of acute pressure overload, could protect against transverse aortic constriction (TAC)-induced left ventricular (LV) hypertrophy, dysfunction and mortality. Three treatment groups were included (See Table 1, below): sham-operated mice (n=20), TAC mice treated with vehicle (0.5% methylcellulose) (n=30), and TAC mice treated with febuxostat (suspension in 0.5% methylcellulose) (n=30). To generate LV hypertrophy in a short time period with a significant incidence of cardiac mortality, TAC was created by ligating the transverse aorta against a 27 G needle to create severe LV pressure overload. […] On the eighth day, LV function was assessed by echocardiography approximately 1 hour after the last febuxostat or vehicle dose. […] Following three weeks of treatment, ventricular function was assessed by echocardiography. […]

[3] = delayed treatment: vehicle 21 days then oral FBS 10 mg/kg/day or AL 60 mg/kg/day for 28 days

| SMILES | Body weight ([1]; TAC mice) [g] | Heart rate ([1]; TAC mice) [beats/min] | Average body weight increase ([1]; TAC mice) [g] | Body weight ([1]; sham mice) [g] | Heart rate ([1]; sham mice) [beats/min] | Body weight ([1]; sham mice, listed as AL) | Body weight [2, 3] [kg] | Body weight (TAC mice) [g] | Heart rate (TAC mice) [beats/min] | Body weight ([2]; early treatment: FBS 10 mg/kg/day oral for 49 days from 1 day after coronary occlusion) [kg] |
| --- | --- | --- | --- | --- | --- | --- | --- | --- | --- | --- |
| Oc1ncnc2[nH]ncc12 [allopurinol] | 24.8 ± 0.6 | 463 ± 10 | 3.38 ± 0.37 | 24.4 ± 0.6 | 490 ± 16 | no significant effects | 2.70 ± 0.04 | – | – | – |
| Cc1nc(-c2ccc(OCC(C)C)c(C#N)c2)sc1C(=O)O [febuxostat, 2-[3-cyano-4-(2-methylpropoxy)phenyl]-4-methylthiazole-5-carboxylic acid] | 25.8 ± 0.4 | 454 ± 11 | 2.93 ± 0.42 | – | 504 ± 19 | – | 2.37 ± 0.13 | 23.4 ± 0.9 | 415 ± 18 | 2.55 ± 0.06 |
